PubChem BioAssay AID504834 (National Center for Advancing Translational Sciences (NCATS), 2011)
About 22,000 (6.9%) of roughly 320,000 compounds were called active. This list was built around the results that the source calls inconclusive (neither active nor inactive); the mix of calls is not that of the screen. Calls come from the whole dose curve; as a rule, active = well fitted inhibition curve with a large enough effect; inconclusive = small, poorly fitted or top-dose-only effect, or another doubt; inactive = no such curve, though single readings can be large or run the other way. A potency beside an inconclusive call is a rough fit, not a confirmed value.

Assay: Primary qHTS for delayed death inhibitors of the malarial parasite plastid, 96 hour incubation
Conditions: P. falciparum luciferase reporter growth; series mostly up to 28.7 µM
Procedure, shortened: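 Infected RBCs, 2% Hct / 0.05% parasitemia final; luciferase-reporter P. falciparum; cpd 96 h, 37 C, 5% CO2; luciferase detection reagent; luminescence.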
Potency is the fitted concentration of half-maximal effect.

| Compound | Potency |
| --- | --- |
| CS(=O)(=O)C1=NSC2=NC(=O)/C(=C\c3ccc(OC(=O)c4ccco4)c(Br)c3)C(=N)N21 | inconclusive: 11.7 µM [inhibitor, single point] |
| COc1cc(/C=C2\C(=N)N3N=C(S(C)(=O)=O)SC3=NC2=O)ccc1OS(=O)(=O)c1ccccc1 | inconclusive: 18.5 µM [inhibitor, single point] |
